In US20190192484A1 (UNIVERSITY OF CHICAGO, published 2019):
These are yes or no findings as the source states them, for the method shown. Some binding calls cover weakened binding; strength is not graded here.

Sequences of proteins named here, by UniProt entry; tags and fusion partners are left off.
UniProt Q64373: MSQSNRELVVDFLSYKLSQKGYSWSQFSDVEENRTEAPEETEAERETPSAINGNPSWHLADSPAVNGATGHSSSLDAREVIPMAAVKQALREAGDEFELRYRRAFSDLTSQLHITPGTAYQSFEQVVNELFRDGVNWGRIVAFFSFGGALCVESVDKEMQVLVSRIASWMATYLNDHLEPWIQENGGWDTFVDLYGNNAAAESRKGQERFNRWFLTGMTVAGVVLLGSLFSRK

Biological target: BCL-xL (endogenous, fibroblasts) (mouse) (UniProt Q64373)
Test: immunoprecipitation with anti-BCL-xL antibody, immunoblot with anti-BAD (FIG. 7B)

binding: binds
B1: BAD(S26A) mutant (protein, UniProt Q61337 1-204, looked up)
chain: MGTPKQPSLAPAHALGLRKSDPGIRALGSDAGGRRWRPAAQSMFQIPEFEPSEQEDASATDRGLGPSLTEDQPGPYLAPGLLGSNIHQQGRAATNSHHGGAGAMETRSRHSSYPAGTEEDEGMEEELSPFRGRSRSAPPNLWAAQRYGRELRRMSDEFEGSFKGLPRPKSAGTATQMRQSAGWTRIIQSWWDRNLGKGGSTPSQ
